Part of at least one peptide drawing is inferred or uncertain, most often the ends. Ends that are not written are not given here.
Experiments:
[1] = test system: IgG in plasma of HLA-A2^+ healthy donors and prostate cancer patients; assay: Peptide-specific IgG in plasma by ELISA (HLA-A2-binding PTHrP peptides); parameters: species or system human; conditions: for IgG reactive to the peptide in plasma (difference of OD): 1:100-diluted plasma
Protocol: Peptide-specific IgG levels in the plasma were measured by ELISA, as previously reported. In brief, peptide (20 μg/well)-immobilized plates were blocked with Block Ace (Yukijirushi, Tokyo, Japan) and washed with 0.05% Tween20-PBS, after which 100 μl/well of plasma sample diluted with 0.05% Tween20-Block Ace was added to the plate. After 2 hours incubation at 37° C., the plates were washed and further incubated for 2 hours with a 1:1000-diluted rabbit anti-human IgG (γ-chain-specific) (DAKO, Glostrup, Denmark). The plates were washed, and then 100 μl of 1:100-diluted goat anti-rabbit IgG-conjugated horseradish peroxidase (EnVision, DAKO) was added to each well, and the plates were then incubated at room temperature for 40 min. After the plates were washed once, 100 μl/well of tetramethyl benzidine substrate solution (KPL, Guildford, UK) was added, and the reaction was stopped by the addition of 1 M phosphoric acid. The values are shown as optical density (OD) units/ml, and responses to the HIV peptide were subtracted. IgG reactive to a corresponding PTHrP peptide was judged to be positive when the difference of the OD in 1:100-diluted plasma exceeded 0.05. The results that IgG reactive to either the PTHrP102-111 or the […] peptide was detected in 8 of 10 healthy donors and in 7 of 10 prostate cancers are shown in Table 2 hereinafter.
In a similar way to Example 3, it was examined whether IgGs reactive to peptides of PTHrP 42-51 and PTHrP 59-67 could be detected in the plasma of 10 healthy donors and 10 cancer patients. The cut-off value at 1:100-diluted plasma was ODO.054.

[2] = test system: PBMCs of HLA-A2^+ healthy donors and prostate cancer patients; assay: Assay for peptide-specific CTLs in PBMCs (IFN-γ ELISA, peptide-pulsed T2 cells); format: cell-based, human; conditions: for INF-γ production: T2 cells
[3] = HLA-A2^+ prostate cancer patients

In the case of QLLHDKGKSI, the “IgG reactive to the peptide in plasma (difference of OD)” value (“IgG reactive … (difference of OD)” below) ([1]; HLA-A2^+ healthy donor #1) is reported as “— (IgG reactive to a corresponding peptide was judged to be positive when a difference of OD in a 1:100-diluted plasma was more than 0.054.)”, the “IgG reactive … (difference of OD)” value ([1]; HLA-A2^+ healthy donor #2) is reported as 0.055 OD and the “IgG reactive … (difference of OD)” value ([1]; HLA-A2^+ healthy donor #3) is reported as “— (IgG reactive to a corresponding peptide was judged to be positive when a difference of OD in a 1:100-diluted plasma was more than 0.054.)”. The “IgG reactive … (difference of OD)” value ([1]; HLA-A2^+ healthy donor #4) was 0.1115 OD, the “IgG reactive … (difference of OD)” value ([1]; HLA-A2^+ healthy donor #5) was 0.0615 OD and the “IgG reactive … (difference of OD)” value ([1]; HLA-A2^+ healthy donor #6) was 0.0845 OD. For the same sequence, the “IgG reactive … (difference of OD)” value ([1]; HLA-A2^+ healthy donor #7) was 0.0874 OD, the “IgG reactive … (difference of OD)” value ([1]; HLA-A2^+ healthy donor #8) was 0.1275 OD and the “IgG reactive … (difference of OD)” value ([1]; HLA-A2^+ healthy donor #9) was 0.169 OD. The “IgG reactive … (difference of OD)” value ([1]; HLA-A2^+ healthy donor #10) was 0.091 OD, the “IgG reactive to the peptide detected, number of donors” value ([1]; HLA-A2^+ healthy donors) was 8 of 10 and the “Total (IgG-positive donors / donors tested)” value ([1]; HLA-A2^+ healthy donors) was 8/10. For the same sequence, the “IgG reactive … (difference of OD)” value ([1]; HLA-A2^+ prostate cancer patient #1) was 0.0685 OD, the “IgG reactive … (difference of OD)” value ([1]; HLA-A2^+ prostate cancer patient #2) was 0.055 OD and the “IgG reactive … (difference of OD)” value ([1]; HLA-A2^+ prostate cancer patient #3) was 0.0715 OD. For the same sequence, the “IgG reactive … (difference of OD)” value ([1]; HLA-A2^+ prostate cancer patient #4) was “— (IgG reactive to a corresponding peptide was judged to be positive when a difference of OD in a 1:100-diluted plasma was more than 0.054.)”, the “IgG reactive … (difference of OD)” value ([1]; HLA-A2^+ prostate cancer patient #5) was 0.106 OD and the “IgG reactive … (difference of OD)” value ([1]; HLA-A2^+ prostate cancer patient #6) was 0.0885 OD. The “IgG reactive … (difference of OD)” value ([1]; HLA-A2^+ prostate cancer patient #7) was 0.099 OD, the “IgG reactive … (difference of OD)” value ([1]; HLA-A2^+ prostate cancer patient #8) was “— (IgG reactive to a corresponding peptide was judged to be positive when a difference of OD in a 1:100-diluted plasma was more than 0.054.)” and the “IgG reactive … (difference of OD)” value ([1]; HLA-A2^+ prostate cancer patient #9) was “— (IgG reactive to a corresponding peptide was judged to be positive when a difference of OD in a 1:100-diluted plasma was more than 0.054.)”. For the same sequence, the “IgG reactive … (difference of OD)” value ([1]; HLA-A2^+ prostate cancer patient #10) was 0.0995 OD, the “IgG reactive to the peptide detected, number of patients” value [1, 3] was 7 of 10 and the “Total (IgG-positive patients / patients tested)” value [1, 3] was 7/10. For the same sequence, the “IFN-γ production of peptide-stimulated PBMCs in response to peptide-pulsed T2 cells” value ([2]; FIG. 4A) was “could produce IFN-γ”, the INF-γ production ([2]; HLA-A2^+ healthy donor #1 (A0201)) was 215 pg/mL and the INF-γ production ([2]; HLA-A2^+ healthy donor #2 (A0201)) was 127 pg/mL. For the same sequence, the INF-γ production ([2]; HLA-A2^+ healthy donor #3 (A0201)) was 0 pg/mL, the INF-γ production ([2]; HLA-A2^+ healthy donor #4 (A0201)) was 122 pg/mL and the INF-γ production ([2]; HLA-A2^+ healthy donor #5 (A0206)) was 138 pg/mL. It also gave an INF-γ production ([2]; HLA-A2^+ healthy donor #6 (A0206)) of 143 pg/mL, an INF-γ production ([2]; HLA-A2^+ healthy donor #7 (A0206)) of 0 pg/mL and an INF-γ production ([2]; HLA-A2^+ healthy donor #8 (A0206)) of 380 pg/mL. The INF-γ production ([2]; HLA-A2^+ healthy donor #9 (A0206)) was 346 pg/mL, the INF-γ production ([2]; HLA-A2^+ healthy donor #10 (A0207)) was 17 pg/mL and the “induced peptide-specific CTLs, number of donors” value ([2]; HLA-A2^+ healthy donors) was 7 of 10. The “Total (donors with significant peptide-specific IFN-γ production / donors tested)” value ([2]; HLA-A2^+ healthy donors, p < 0.05) was 7/10, the INF-γ production ([2]; HLA-A2^+ prostate cancer patient #1 (A0206)) was 155 pg/mL and the INF-γ production ([2]; HLA-A2^+ prostate cancer patient #2 (A0210)) was 172 pg/mL. It also gave an INF-γ production ([2]; HLA-A2^+ prostate cancer patient #3 (A0210)) of 179 pg/mL, an INF-γ production ([2]; HLA-A2^+ prostate cancer patient #4 (A0206)) of 22 pg/mL and an INF-γ production ([2]; HLA-A2^+ prostate cancer patient #5 (A0206)) of 153 pg/mL. For the same sequence, the INF-γ production ([2]; HLA-A2^+ prostate cancer patient #6 (A0207)) was 116 pg/mL, the INF-γ production ([2]; HLA-A2^+ prostate cancer patient #7 (A0206)) was 0 pg/mL and the INF-γ production ([2]; HLA-A2^+ prostate cancer patient #8 (A0206)) was 30 pg/mL. The INF-γ production ([2]; HLA-A2^+ prostate cancer patient #9 (A0201)) was 0 pg/mL, the INF-γ production ([2]; HLA-A2^+ prostate cancer patient #10 (A0201)) was 0 pg/mL and the “induced peptide-specific CTLs (peptide-specific IFN-γ production), number of patients” value [2, 3] was 5 of 10. For the same sequence, the “Total (patients with significant peptide-specific IFN-γ production / patients tested)” value ([2]; HLA-A2^+ prostate cancer patients, p < 0.05) was 5/10.

From patent US20080014186A1, “Hla-A24 or Hla-A2 Binding Peptides of Parathyroid Hormone-Related Protein” (GREEN PEPTIDE CO., LTD., priority 2004, published 2008)
